# Measured data: PubChem BioAssay AID1224830 (NIAID, 2016)
# Aim: 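Host factors that control LPS-induced TNF expression in human macrophages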 (primary screen)
# System: human THP-1 monocytic leukaemia cells, TNF dual-luciferase reporter clone, PMA-differentiated to macrophage-like cells
# Reagent: siRNA pool against human genes, 50 nM
# Timing: LPS for 4 h, given about 3 days after siRNA transfection
# Challenge: bacterial LPS (TLR4 ligand), 10 ng/ml
# Read-out: 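TNF firefly reporter luminescence divided by renilla, normalised to the plate median, then turned into a robust z-score for each replicate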
# Reading the numbers: TNF reporter robust z-score: higher = stronger TNF reporter response to LPS
# Rule for the call: 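a well is active when its z-score exceeds 2.8 or falls below -1.5; control wells carry no call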
# The whole screen tested about 18,000 reagents; this is a random part of them. About 2,900 of all reagents (16%) count as active. 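Calls are made per well; low scores hint the gene aids the LPS response, high scores that it dampens it.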 Unmarked entries are inactive. Repeated entries: four replicate wells of each siRNA pool.
target gene,TNF reporter robust z-score
TTC31,-0.27
TTC31,-0.64
TTC31,0.04
TTC31,-0.92
KCTD4,2.49
KCTD4,4.64 (active)
KCTD4,-0.41
KCTD4,2.24
AP5M1,-0.22
AP5M1,-0.29
AP5M1,-0.64
AP5M1,-1.3
BAZ2A,-0.19
BAZ2A,-0.32
BAZ2A,-0.41
BAZ2A,-0.28
WBP1L,0.74
WBP1L,0
WBP1L,-0.36
WBP1L,0.12
NADSYN1,-0.67
NADSYN1,-0.37
NADSYN1,-0.04
NADSYN1,-0.19
MAOB,0.95
MAOB,1.33
MAOB,1.4
MAOB,2.02
KRT25,-0.86
KRT25,-0.29
KRT25,-1.09
KRT25,-0.96
GOLPH3L,-0.88
GOLPH3L,-0.94
GOLPH3L,-0.85
CES5A,-0.76
CES5A,0.02
CES5A,0.21
CES5A,-0.15
DEFB124,-0.3
DEFB124,-0.37
DEFB124,0.6
DEFB124,0.43
ZNF474,-0.13
ZNF474,0.32
ZNF474,-0.82
ZNF474,-0.58
ASGR2,1.07
ASGR2,0.71
ASGR2,0.62
ASGR2,0.64
STRADB,-0.38
STRADB,0.46
STRADB,0.19
STRADB,-0.58
PTGER3,0.28
PTGER3,0.26
PTGER3,0.58
PTGER3,0.17
GFRA3,1.66
GFRA3,1.43
GFRA3,0.59
GFRA3,1.04
SLC16A1,-0.12
SLC16A1,-0.65
SLC16A1,-1.17
SLC16A1,-0.82
NPPB,1.29
NPPB,1.39
NPPB,1.19
NPPB,2.98 (active)
DEFB105A,0.52
DEFB105A,-0.65
DEFB105A,-0.9
DEFB105A,-0.43
PRAMEF16 (retired record),-2.19 (active)
PRAMEF16 (retired record),-0.61
PRAMEF16 (retired record),-0.29
PRAMEF16 (retired record),-0.16
OR13C8,-0.78
OR13C8,-1.55 (active)
OR13C8,-1.68 (active)
OR13C8,-1.03
FABP9,-0.95
FABP9,0.36
FABP9,-0.43
FABP9,0.65
ATP6V1F,-0.98
ATP6V1F,0
ATP6V1F,-0.34
ATP6V1F,0.19
SPRYD3,-0.81
SPRYD3,-0.34
SPRYD3,-1.29
SPRYD3,-1.04
ATP6V0E1,-2.02 (active)
ATP6V0E1,-1.52 (active)
ATP6V0E1,-1.88 (active)
ATP6V0E1,-1.5
LANCL2,0.16
LANCL2,0.69
LANCL2,-0.59
LANCL2,0.24
UBR4,1.56
UBR4,0.43
UBR4,-0.13
UBR4,1.5
CFHR3,0.42
CFHR3,0.1
CFHR3,1.28
CFHR3,-0.77
